{
  "sequences": {"note": "Chains of the proteins cited; added tags and fusions are not shown. Lines headed by an entry give the natural chain unless they say otherwise; changes in a name come on top. Residues count along the entry.", "UniProt P07766": "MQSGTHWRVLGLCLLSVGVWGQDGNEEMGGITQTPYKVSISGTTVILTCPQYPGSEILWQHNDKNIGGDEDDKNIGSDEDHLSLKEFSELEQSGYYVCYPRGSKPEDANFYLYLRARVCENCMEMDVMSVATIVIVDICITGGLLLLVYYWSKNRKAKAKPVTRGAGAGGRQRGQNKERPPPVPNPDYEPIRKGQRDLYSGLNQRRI", "UniProt Q95LI5, residues 22-198": "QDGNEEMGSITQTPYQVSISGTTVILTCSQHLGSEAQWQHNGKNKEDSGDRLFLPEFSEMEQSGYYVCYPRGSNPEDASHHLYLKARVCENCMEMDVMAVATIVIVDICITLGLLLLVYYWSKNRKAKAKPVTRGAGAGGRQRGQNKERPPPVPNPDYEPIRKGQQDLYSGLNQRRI"},
  "source": "patent US20180112001A1",
  "binders": {"B1": {"name": "CD3-VH-G (anti-CD3 antibody engineered to contain only germline frameworks) (antibody, V domains shown)", "VH": "EVQLVESGGGLVQPGRSLRLSCAASGFTFDDYSMHWVRQAPGKGLEWVSGISWNSGSKGYADSVKGRFTISRDNAKNSLYLQMNSLRAEDTALYYCAKYGSGYGKFYHYGLDVWGQGTTVTVSS", "VL": "DIQMTQSPSSLSASVGDSVTITCRASQSINNYLNWYQQKPGKAPKLLIYTASSLLSGVPSRFSGSGSGTDFTLTISGLHPEDFATYFCQQSFSTPPITFGQGTRLDIK"}},
  "key": {"[1]": {"molecular_target": "human CD3 on cells (Jurkat cells, human T cells) (human) (UniProt P07766)", "test": "FACS assays"}, "[2]": {"molecular_target": "cynomolgus monkey CD3 on cynomolgus T cells (cynomolgus monkey) (UniProt Q95LI5)", "test": "FACS assays"}},
  "note": "These are yes or no findings as the source states them, for the method shown. Some binding calls cover weakened binding; strength is not graded here.",
  "data": [
    {"binder": "B1", "values": [
      {"measurement": "binding", "setting": "[1]", "value": "binds"},
      {"measurement": "binding", "setting": "[2]", "value": "binds"}
    ]}
  ]
}
